We go through two sequences from article PMC8562477.

The exact form of at least one protein or probe is not confirmed.

The data set has as its system MBP-RstA-P (acetyl phosphate treated) (Pseudomonas fluorescens 2P24). Kind of data set: EMSA. As to conditions: EMSA: 50 mM Tris-HCl pH 7.5, 10 mM MgCl2, 10% glycerol, 0.5 mM EDTA, 50 mM KCl, 3 uM BSA, 50 ng DNA in 20 ul, 30 min room temperature, 6% native PAGE, recombinant protein, residues 1-233, protein details: N-terminal MBP (pMAL-c2X), label: FAM, probe letters rebuilt from the primers and the genome.

As to “GGCAATAAACACCTCAATCAGGATGCGTCAGCAATGCGTAAGCATCAGCTGAACAAAATATGAGGCGACGTCTCTTGAAACGCGTCTCCGATCTATACAGGCCTTTGTCAGGCTTTTGTAAATCCGGATATTACGCAATTTGGCTGTTTACAAACAACCGTGTACGTAAGTATATTTCTTAGCATCCTACTAATTGAAAAAATGCTCCTTTTTTACCCTTCCACCTTTCGAGTGCGCCAGTTACGCGCCTGGACCCGAGGATTT (double strand) [FAM-emhA promoter]”, the binding result (concentration dependent) is listed as “binds”. On to “CGGCCTGTGTGATTACACAATTTCACAGAGCGCCTACAAAGCTTCACCCCTGTCATGGGCCTGGATCCCTACCATGAGCGGCTCAATATTGGGGAAGCACC (double strand) [FAM-mexC promoter]”, for which the binding result (two shifted bands) is “binds”.
